Results are given in words; binding and its absence hold for the method and conditions named. For some assays here: In cells and extracts the contact can be indirect. For some assays here: Binding can be weak; no strength is given. Tags and fused reporters may be left off the sequences shown.

Assay [1] deals with Hcp2-His (P. aeruginosa). As to the kind of experiment: pull-down; Hcp-His (bait, pACYCDuet-1) and HA-tagged effector (pET22b) coexpressed in E. coli BL21; soluble lysate on Ni-NTA resin (HisTrap Fast Flow) in 50 mM Tris, 500 mM NaCl, 20 mM imidazole, pH 8; eluted with 400 mM imidazole; Western blot anti-HA and anti-His or anti-Hcp2.
The target in assay [2] is Hcp2-His (P. aeruginosa). Kind of assay: condition: only after size exclusion chromatography of the Ni-NTA eluate; SEC; Ni-NTA elution peak of the coexpressed pair run on Superdex 200 10/300 in 50 mM Tris, pH 8, 150 mM NaCl (250 mM NaCl for Hcp1-His with HA-Tse2); peak fractions by Western blot or Coomassie stain. (In general: Size exclusion chromatography separates by hydrodynamic size, large species first.)

B1: PA2066-HA (protein, UniProt Q9I249 1-212)
chain: MSPTLQDARLLWDFLGQGRCHVPCELLVVCGSYDLRVCDHACELLERGLAERLLFTGNTGHWTRHLWVEPEAELFARHARARGVSDSLIVIEPRATNFAENIAFARELFPDLRRATFVTKPNSIRRVALTLPVRWPGLEGHVDAPDYAFPDGISNLVGVLGVIDEMVGDLDRIMRYPALGFQVACPIPAQVMDAWERLVARGFDRHLVNPPR
On to B1, for which the values for the binding result in assay [1] and in assay [2] were “binds weakly” and “no binding”, respectively.

Source of the values: PMC8262886, “The Breadth and Molecular Basis of Hcp-Driven Type VI Secretion System Effector Delivery” (mBio, 2021).
